Source: the supplement of paper PMC12823440, “Inhibitors supercharge kinase turnover through native proteolytic circuits” (Nature, 2025)
The list shows a part of the results. Hit calls seldom repeat between salt and free forms of one compound.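 In K562 cells expressing nanoluciferase-fused kinases, luminescence was recorded at 4 h intervals between 2 and 18 h, normalized as percent of control with DMSO at 100% and a positive control at 0%. A significant (2 sigma) signal drop marks a time point as decreased. The authors' rule for a hit is not shown and takes in more than the number of time points.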

Sequences of proteins named here, by UniProt entry; tags and fusion partners are left off. A change or cut given only in a name is not applied to a line headed by its entry.
UniProt Q15208: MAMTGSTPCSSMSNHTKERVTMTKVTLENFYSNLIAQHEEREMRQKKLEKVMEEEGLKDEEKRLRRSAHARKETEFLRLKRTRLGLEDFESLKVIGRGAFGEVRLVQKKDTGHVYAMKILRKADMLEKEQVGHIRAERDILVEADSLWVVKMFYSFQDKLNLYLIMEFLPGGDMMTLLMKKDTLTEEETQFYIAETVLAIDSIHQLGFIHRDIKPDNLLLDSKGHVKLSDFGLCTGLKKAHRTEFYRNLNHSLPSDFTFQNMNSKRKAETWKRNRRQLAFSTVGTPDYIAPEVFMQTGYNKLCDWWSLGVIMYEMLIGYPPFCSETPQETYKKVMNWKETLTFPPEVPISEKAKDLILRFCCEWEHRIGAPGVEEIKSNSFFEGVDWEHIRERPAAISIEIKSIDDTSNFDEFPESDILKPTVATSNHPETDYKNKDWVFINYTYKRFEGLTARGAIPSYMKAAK
UniProt Q6PHR2: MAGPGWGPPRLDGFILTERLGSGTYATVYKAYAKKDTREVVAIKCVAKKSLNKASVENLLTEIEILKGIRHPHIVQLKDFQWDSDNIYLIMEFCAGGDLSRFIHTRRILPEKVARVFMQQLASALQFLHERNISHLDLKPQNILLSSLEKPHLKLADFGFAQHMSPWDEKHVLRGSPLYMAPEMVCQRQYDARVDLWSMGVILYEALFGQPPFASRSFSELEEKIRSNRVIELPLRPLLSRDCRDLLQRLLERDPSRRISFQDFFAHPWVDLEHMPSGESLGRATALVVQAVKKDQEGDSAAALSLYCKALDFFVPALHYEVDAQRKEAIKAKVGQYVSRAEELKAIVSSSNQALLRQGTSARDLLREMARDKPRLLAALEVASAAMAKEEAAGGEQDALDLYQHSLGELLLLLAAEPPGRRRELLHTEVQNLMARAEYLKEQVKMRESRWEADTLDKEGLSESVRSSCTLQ
UniProt P00519, whole entry: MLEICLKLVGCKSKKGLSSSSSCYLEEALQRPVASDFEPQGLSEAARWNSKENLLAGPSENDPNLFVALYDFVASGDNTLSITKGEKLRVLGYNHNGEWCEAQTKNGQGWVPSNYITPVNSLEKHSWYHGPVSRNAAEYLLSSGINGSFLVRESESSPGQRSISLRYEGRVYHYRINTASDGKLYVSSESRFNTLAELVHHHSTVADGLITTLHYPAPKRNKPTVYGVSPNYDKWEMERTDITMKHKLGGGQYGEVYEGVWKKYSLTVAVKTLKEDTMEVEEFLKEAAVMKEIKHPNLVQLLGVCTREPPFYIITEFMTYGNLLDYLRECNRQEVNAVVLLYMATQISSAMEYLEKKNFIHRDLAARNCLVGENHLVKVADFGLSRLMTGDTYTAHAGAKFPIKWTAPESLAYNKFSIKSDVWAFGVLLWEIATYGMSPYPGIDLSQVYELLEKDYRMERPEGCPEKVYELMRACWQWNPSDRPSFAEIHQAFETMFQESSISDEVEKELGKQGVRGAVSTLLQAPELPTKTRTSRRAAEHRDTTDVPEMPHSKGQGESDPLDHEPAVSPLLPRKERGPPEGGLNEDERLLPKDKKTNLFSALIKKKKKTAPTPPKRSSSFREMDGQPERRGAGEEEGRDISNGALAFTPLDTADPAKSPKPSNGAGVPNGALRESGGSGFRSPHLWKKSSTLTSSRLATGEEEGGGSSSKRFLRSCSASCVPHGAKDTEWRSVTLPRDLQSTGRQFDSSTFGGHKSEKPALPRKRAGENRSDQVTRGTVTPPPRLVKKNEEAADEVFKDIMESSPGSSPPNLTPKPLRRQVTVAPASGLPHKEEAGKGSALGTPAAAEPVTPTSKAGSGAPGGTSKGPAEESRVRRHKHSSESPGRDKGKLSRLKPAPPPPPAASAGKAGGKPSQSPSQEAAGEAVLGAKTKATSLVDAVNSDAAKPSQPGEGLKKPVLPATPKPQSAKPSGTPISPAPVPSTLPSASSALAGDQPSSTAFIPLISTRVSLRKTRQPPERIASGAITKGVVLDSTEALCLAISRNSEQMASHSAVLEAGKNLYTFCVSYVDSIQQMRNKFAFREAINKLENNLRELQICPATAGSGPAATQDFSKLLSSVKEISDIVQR
UniProt Q9UM73: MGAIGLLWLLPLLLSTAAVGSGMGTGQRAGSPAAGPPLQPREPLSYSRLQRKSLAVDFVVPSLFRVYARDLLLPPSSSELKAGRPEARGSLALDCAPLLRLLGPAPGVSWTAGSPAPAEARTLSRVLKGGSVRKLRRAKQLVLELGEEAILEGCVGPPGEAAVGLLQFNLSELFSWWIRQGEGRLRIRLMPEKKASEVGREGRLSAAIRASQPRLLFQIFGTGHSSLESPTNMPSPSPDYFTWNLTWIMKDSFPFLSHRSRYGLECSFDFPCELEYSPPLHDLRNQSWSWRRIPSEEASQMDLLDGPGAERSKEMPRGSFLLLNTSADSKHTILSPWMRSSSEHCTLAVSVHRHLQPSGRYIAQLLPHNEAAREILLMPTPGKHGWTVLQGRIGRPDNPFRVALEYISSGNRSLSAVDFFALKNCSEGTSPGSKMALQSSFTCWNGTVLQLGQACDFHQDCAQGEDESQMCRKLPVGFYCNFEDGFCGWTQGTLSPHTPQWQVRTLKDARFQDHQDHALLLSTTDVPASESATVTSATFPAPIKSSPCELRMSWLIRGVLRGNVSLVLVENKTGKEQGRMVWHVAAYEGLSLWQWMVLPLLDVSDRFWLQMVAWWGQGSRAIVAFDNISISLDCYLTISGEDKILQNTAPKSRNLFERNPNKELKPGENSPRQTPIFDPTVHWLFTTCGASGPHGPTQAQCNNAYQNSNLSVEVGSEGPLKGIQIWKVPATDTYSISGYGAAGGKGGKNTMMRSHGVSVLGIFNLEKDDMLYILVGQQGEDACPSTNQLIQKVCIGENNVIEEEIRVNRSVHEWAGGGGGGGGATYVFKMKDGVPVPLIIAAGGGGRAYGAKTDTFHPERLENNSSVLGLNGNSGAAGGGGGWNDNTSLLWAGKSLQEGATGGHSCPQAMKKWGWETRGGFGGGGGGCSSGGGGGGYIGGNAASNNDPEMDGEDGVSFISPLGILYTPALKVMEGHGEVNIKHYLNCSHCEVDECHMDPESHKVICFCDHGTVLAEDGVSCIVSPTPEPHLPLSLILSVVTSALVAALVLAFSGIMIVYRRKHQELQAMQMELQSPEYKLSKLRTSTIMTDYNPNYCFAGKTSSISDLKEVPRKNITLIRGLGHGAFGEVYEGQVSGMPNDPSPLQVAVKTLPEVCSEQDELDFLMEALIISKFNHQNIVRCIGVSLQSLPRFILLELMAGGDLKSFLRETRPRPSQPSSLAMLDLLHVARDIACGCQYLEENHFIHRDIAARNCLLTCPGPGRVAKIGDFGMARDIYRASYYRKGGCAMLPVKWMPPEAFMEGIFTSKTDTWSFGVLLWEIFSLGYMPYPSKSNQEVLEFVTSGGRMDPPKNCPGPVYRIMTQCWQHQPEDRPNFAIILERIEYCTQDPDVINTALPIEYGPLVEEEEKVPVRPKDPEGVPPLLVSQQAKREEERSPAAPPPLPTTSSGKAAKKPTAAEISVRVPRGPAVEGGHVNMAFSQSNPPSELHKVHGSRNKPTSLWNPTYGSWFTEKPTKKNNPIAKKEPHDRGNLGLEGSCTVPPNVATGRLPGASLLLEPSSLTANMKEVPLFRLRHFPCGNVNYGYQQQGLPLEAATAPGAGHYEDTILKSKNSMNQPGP
UniProt O14965: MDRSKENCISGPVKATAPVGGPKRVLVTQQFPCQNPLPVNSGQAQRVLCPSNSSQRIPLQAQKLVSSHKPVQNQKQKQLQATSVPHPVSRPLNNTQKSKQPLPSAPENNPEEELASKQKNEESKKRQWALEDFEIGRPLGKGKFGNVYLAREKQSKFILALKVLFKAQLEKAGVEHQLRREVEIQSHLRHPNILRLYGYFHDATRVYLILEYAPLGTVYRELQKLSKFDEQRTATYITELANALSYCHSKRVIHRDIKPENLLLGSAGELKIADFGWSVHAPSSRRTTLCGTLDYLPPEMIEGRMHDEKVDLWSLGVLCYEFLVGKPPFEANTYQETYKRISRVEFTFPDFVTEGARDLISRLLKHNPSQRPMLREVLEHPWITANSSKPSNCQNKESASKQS
UniProt Q96GD4, whole entry: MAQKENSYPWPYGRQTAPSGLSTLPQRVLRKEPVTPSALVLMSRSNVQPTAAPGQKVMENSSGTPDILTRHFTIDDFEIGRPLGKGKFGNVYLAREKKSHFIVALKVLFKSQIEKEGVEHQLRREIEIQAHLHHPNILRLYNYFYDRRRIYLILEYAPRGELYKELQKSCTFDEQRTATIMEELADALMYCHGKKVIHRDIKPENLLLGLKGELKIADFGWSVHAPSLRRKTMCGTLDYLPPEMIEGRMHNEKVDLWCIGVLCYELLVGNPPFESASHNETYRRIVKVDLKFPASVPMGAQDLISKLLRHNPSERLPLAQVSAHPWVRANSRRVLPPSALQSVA
UniProt Q9UQB9: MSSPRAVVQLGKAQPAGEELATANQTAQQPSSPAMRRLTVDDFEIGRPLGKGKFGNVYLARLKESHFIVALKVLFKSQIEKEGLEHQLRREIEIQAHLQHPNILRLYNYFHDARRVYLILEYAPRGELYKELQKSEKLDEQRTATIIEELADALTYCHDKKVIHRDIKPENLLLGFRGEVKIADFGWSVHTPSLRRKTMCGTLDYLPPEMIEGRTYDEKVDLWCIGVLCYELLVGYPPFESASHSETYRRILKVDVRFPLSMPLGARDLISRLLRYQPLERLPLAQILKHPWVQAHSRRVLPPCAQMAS
UniProt P51451: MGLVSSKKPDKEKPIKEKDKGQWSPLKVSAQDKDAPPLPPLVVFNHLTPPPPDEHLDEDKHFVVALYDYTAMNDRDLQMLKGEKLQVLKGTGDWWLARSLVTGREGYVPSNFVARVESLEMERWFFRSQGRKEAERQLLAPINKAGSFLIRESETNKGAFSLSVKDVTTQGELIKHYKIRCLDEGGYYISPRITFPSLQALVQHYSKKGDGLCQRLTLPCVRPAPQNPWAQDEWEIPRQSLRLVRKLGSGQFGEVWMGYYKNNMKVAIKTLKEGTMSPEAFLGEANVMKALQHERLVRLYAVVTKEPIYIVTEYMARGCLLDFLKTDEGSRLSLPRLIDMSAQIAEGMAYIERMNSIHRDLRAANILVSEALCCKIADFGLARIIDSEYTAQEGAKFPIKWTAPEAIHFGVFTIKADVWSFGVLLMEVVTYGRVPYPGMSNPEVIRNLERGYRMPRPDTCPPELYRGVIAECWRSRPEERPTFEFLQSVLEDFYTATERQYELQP
UniProt P51813: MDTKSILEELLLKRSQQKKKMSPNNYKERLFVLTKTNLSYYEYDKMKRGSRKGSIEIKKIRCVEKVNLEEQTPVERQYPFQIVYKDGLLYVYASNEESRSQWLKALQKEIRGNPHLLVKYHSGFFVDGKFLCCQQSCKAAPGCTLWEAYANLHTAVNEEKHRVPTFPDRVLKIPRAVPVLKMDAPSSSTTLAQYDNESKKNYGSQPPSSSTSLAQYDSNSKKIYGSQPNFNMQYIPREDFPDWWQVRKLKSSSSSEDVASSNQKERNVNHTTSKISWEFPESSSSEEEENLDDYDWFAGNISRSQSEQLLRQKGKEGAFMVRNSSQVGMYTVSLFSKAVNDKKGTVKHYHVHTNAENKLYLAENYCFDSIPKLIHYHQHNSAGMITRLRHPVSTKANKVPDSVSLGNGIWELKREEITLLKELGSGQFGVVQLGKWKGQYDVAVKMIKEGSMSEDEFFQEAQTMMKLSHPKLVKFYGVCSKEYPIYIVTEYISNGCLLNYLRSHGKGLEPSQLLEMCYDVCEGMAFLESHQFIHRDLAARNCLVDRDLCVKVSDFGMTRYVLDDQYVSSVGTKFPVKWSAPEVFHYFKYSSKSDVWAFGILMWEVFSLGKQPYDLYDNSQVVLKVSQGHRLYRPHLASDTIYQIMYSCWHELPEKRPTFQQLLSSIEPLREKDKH
UniProt Q06187: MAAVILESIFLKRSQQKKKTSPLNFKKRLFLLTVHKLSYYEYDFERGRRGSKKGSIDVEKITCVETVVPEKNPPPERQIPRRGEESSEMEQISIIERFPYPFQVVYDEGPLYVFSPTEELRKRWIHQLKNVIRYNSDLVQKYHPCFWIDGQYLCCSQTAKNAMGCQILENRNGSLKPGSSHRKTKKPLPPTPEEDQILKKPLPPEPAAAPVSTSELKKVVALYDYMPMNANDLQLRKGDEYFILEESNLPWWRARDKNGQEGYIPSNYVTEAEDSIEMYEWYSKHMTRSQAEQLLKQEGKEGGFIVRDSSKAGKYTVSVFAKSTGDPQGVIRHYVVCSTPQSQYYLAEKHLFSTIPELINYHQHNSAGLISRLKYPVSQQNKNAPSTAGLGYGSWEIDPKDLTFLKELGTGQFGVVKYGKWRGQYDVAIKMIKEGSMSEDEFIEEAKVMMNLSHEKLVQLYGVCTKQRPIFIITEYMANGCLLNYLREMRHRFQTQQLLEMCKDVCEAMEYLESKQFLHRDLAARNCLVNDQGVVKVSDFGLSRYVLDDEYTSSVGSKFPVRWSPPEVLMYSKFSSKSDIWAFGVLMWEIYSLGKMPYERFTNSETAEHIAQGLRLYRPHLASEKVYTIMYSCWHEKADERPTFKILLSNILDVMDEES

Experiments:
Conditions in all cases: K562; 2-18 h
STK38 = STK38 (UniProt Q15208); assay: kinase-Nluc reporter destabilization hit call (1 = scored as downregulated) (binary); higher = compound decreases kinase abundance
SYK = SYK (UniProt P43405); assay: as above
TEC = TEC (UniProt P42680); assay: as above
TYK2 = TYK2 (UniProt P29597); assay: as above
ULK3 = ULK3 (UniProt Q6PHR2); assay: as above
YES1 = YES1 (UniProt P07947); assay: as above
ZAK = ZAK (UniProt Q9NYL2); assay: as above
ZAP70 = ZAP70 (UniProt P43403); assay: as above
ABL1 = ABL1 (UniProt P00519); assay: number of time points (of 5) at which kinase-Nluc abundance scored as decreased, DMSO-normalised (count); higher = more persistent destabilization
AKT1 = AKT1 (UniProt P31749); assay: as above
ALK = ALK (UniProt Q9UM73); assay: as above
ARAF = ARAF (UniProt P10398); assay: as above
AURKA = AURKA (UniProt O14965); assay: as above
AURKB = AURKB (UniProt Q96GD4); assay: as above
AURKC = AURKC (UniProt Q9UQB9); assay: as above
BLK = BLK (UniProt P51451); assay: as above
BMX = BMX (UniProt P51813); assay: as above
BRAF = BRAF (UniProt P15056); assay: as above
BRAF_V600E = assay: as above
BTK = BTK (UniProt Q06187); assay: as above

| SMILES | kinase-Nluc reporter destabilization hit call (STK38) | kinase-Nluc reporter destabilization hit call (SYK) | kinase-Nluc reporter destabilization hit call (TEC) | kinase-Nluc reporter destabilization hit call (TYK2) | kinase-Nluc reporter destabilization hit call (ULK3) | kinase-Nluc reporter destabilization hit call (YES1) | kinase-Nluc reporter destabilization hit call (ZAK) | kinase-Nluc reporter destabilization hit call (ZAP70) | number of time points (ABL1) | number of time points (AKT1) | number of time points (ALK) | number of time points (ARAF) | number of time points (AURKA) | number of time points (AURKB) | number of time points (AURKC) | number of time points (BLK) | number of time points (BMX) | number of time points (BRAF) | number of time points (BRAF_V600E) | number of time points (BTK) |
| --- | --- | --- | --- | --- | --- | --- | --- | --- | --- | --- | --- | --- | --- | --- | --- | --- | --- | --- | --- | --- |
| CCCCCCCCCCCCCCCCOC[C@H](COP(=O)([O-])OCC[N+](C)(C)C)OC(C)=O (10 µM) | inactive: 0 | inactive: 0 | inactive: 0 | inactive: 0 | inactive: 0 | inactive: 0 | inactive: 0 | inactive: 0 | 0 | 0 | 0 | 0 | 0 | 0 | 0 | 0 | 0 | 0 | 0 | 0 |
| COc1ccc2c(c[n+](C)c3c4cc5c(cc4ccc23)OCO5)c1OC [Chelerythrine (chloride)] (10 µM) | inactive: 0 | inactive: 0 | inactive: 0 | inactive: 0 | inactive: 0 | inactive: 0 | inactive: 0 | inactive: 0 | 0 | 0 | 0 | 0 | 0 | 0 | 0 | 0 | 0 | 0 | 0 | 0 |
| O=C(/C=C/c1ccccc1)OC[C@H]1O[C@@H](O[C@@H]2OC=C[C@H]3[C@H](O)[C@@H]4O[C@]4(CO)[C@@H]23)[C@H](O)[C@@H](O)[C@@H]1O [Picroside I] (10 µM) | inactive: 0 | inactive: 0 | inactive: 0 | inactive: 0 | inactive: 0 | inactive: 0 | inactive: 0 | inactive: 0 | 0 | 0 | 0 | 0 | 0 | 0 | 0 | 0 | 0 | 0 | 0 | 0 |
| C[C@H](Nc1ncnc2[nH]cnc12)c1nc2ccc(F)cc2c(=O)n1-c1ccccc1 [Acalisib] (10 µM) | inactive: 0 | inactive: 0 | inactive: 0 | inactive: 0 | inactive: 0 | inactive: 0 | inactive: 0 | inactive: 0 | 0 | 0 | 0 | 0 | 0 | 0 | 0 | 0 | 0 | 0 | 0 | 0 |
| CC(C)=CC[C@@H](OC(=O)CC(C)(C)O)C1=CC(=O)c2c(O)ccc(O)c2C1=O [β-Hydroxyisovalerylshikonin] (2.5 µM) | inactive: 0 | inactive: 0 | inactive: 0 | inactive: 0 | inactive: 0 | inactive: 0 | inactive: 0 | inactive: 0 | 0 | 0 | 0 | 0 | 0 | 0 | 0 | 0 | 0 | 0 | 0 | 0 |
| NCCc1cn(S(=O)(=O)c2c(Cl)nc3sccn23)c2ccccc12 (10 µM) | inactive: 0 | inactive: 0 | inactive: 0 | inactive: 0 | inactive: 0 | inactive: 0 | inactive: 0 | inactive: 0 | 0 | 0 | 0 | 0 | 0 | 0 | 0 | 0 | 0 | 0 | 0 | 0 |
| N#CC(C#N)=NNc1cccc(Cl)c1 (2.5 µM) | inactive: 0 | inactive: 0 | inactive: 0 | inactive: 0 | inactive: 0 | inactive: 0 | inactive: 0 | inactive: 0 | 3 | 0 | 0 | 0 | 0 | 0 | 0 | 0 | 0 | 0 | 1 | 0 |
| CCOC(=O)c1c(/C(C#N)=C\N)c2ccc(Cl)c(Cl)c2n1C (10 µM) | inactive: 0 | inactive: 0 | inactive: 0 | inactive: 0 | inactive: 0 | inactive: 0 | inactive: 0 | inactive: 0 | 0 | 0 | 0 | 0 | 0 | 0 | 0 | 0 | 0 | 0 | 0 | 0 |
| C[C@H]1CC[C@]2(NC1)O[C@H]1C[C@H]3[C@@H]4CC[C@H]5C[C@@H](O[C@@H]6O[C@H](CO)[C@H](O[C@@H]7O[C@H](CO)[C@@H](O)[C@H](O[C@@H]8OC[C@@H](O)[C@H](O)[C@H]8O)[C@H]7O[C@@H]7O[C@H](CO)[C@@H](O)[C@H](O)[C@H]7O)[C@H](O)[C@H]6O)CC[C@]5(C)[C@H]4CC[C@]3(C)[C@H]1[C@@H]2C [Tomatine] (2.5 µM) | inactive: 0 | inactive: 0 | inactive: 0 | inactive: 0 | inactive: 0 | inactive: 0 | inactive: 0 | inactive: 0 | 3 | 0 | 5 | 0 | 4 | 5 | 0 | 4 | 0 | 0 | 0 | 0 |
| O=C(O)c1sc2cc(Cl)ccc2c1Cl (10 µM) | inactive: 0 | inactive: 0 | inactive: 0 | inactive: 0 | inactive: 0 | inactive: 0 | inactive: 0 | inactive: 0 | 0 | 0 | 0 | 0 | 0 | 0 | 0 | 0 | 0 | 0 | 0 | 0 |
| COc1ccc(/C=C/c2cc(OC)c(OC)c(OC)c2)cc1 (2.5 µM) | inactive: 0 | inactive: 0 | inactive: 0 | inactive: 0 | inactive: 0 | inactive: 0 | inactive: 0 | inactive: 0 | 4 | 0 | 3 | 0 | 0 | 0 | 0 | 0 | 0 | 0 | 0 | 0 |
| O=c1ccc2cc(O[C@@H]3O[C@H](CO)[C@@H](O)[C@H](O)[C@H]3O)c(O)cc2o1 [Esculin] (10 µM) | inactive: 0 | inactive: 0 | inactive: 0 | inactive: 0 | inactive: 0 | inactive: 0 | inactive: 0 | inactive: 0 | 0 | 0 | 0 | 0 | 0 | 0 | 0 | 0 | 0 | 0 | 0 | 0 |
| C=C[C@H]1CN2CC[C@]3(C(=O)Nc4ccccc43)[C@@H]2C[C@@H]1/C(=C\OC)C(=O)OC [Corynoxeine] (2 µM) | inactive: 0 | inactive: 0 | inactive: 0 | inactive: 0 | inactive: 0 | inactive: 0 | inactive: 0 | inactive: 0 | 0 | 0 | 0 | 0 | 0 | 0 | 0 | 0 | 0 | 0 | 0 | 0 |
| O=[N+]([O-])/C=C/c1ccc2c(c1)OCO2 (2.5 µM) | inactive: 0 | inactive: 0 | inactive: 0 | inactive: 0 | inactive: 0 | inactive: 0 | inactive: 0 | inactive: 0 | 0 | 0 | 0 | 0 | 0 | 0 | 0 | 0 | 0 | 0 | 0 | 0 |
| CC1C(=O)OC2C(O)C34C5OC(=O)C3(OC3OC(=O)C(O)C34C(C(C)(C)C)C5O)C12O (stereo not given) [Ginkgolide C] (10 µM) | inactive: 0 | inactive: 0 | inactive: 0 | inactive: 0 | inactive: 0 | inactive: 0 | inactive: 0 | inactive: 0 | 0 | 0 | 0 | 0 | 0 | 0 | 0 | 0 | 0 | 0 | 0 | 0 |
| O=C(O)c1nn(Cc2ccc(Cl)cc2Cl)c2ccccc12 [Lonidamine] (10 µM) | inactive: 0 | inactive: 0 | inactive: 0 | inactive: 0 | inactive: 0 | inactive: 0 | inactive: 0 | inactive: 0 | 0 | 0 | 0 | 0 | 0 | 0 | 0 | 0 | 0 | 0 | 0 | 0 |

Retrieved by structure from the entries so far:

| SMILES | kinase-Nluc reporter destabilization hit call (STK38) | kinase-Nluc reporter destabilization hit call (SYK) | kinase-Nluc reporter destabilization hit call (TEC) | kinase-Nluc reporter destabilization hit call (TYK2) | kinase-Nluc reporter destabilization hit call (ULK3) | kinase-Nluc reporter destabilization hit call (YES1) | kinase-Nluc reporter destabilization hit call (ZAK) | kinase-Nluc reporter destabilization hit call (ZAP70) | number of time points (ABL1) | number of time points (AKT1) | number of time points (ALK) | number of time points (ARAF) | number of time points (AURKA) | number of time points (AURKB) | number of time points (AURKC) | number of time points (BLK) | number of time points (BMX) | number of time points (BRAF) | number of time points (BRAF_V600E) | number of time points (BTK) |
| --- | --- | --- | --- | --- | --- | --- | --- | --- | --- | --- | --- | --- | --- | --- | --- | --- | --- | --- | --- | --- |
| O=[N+]([O-])/C=C/c1ccc2c(c1)OCO2 (2.5 µM) | inactive: 0 | inactive: 0 | inactive: 0 | inactive: 0 | inactive: 0 | inactive: 0 | inactive: 0 | inactive: 0 | 0 | 0 | 0 | 0 | 0 | 0 | 0 | 0 | 0 | 0 | 0 | 0 |
| COc1ccc2c(c[n+](C)c3c4cc5c(cc4ccc23)OCO5)c1OC [Chelerythrine (chloride)] (10 µM) | inactive: 0 | inactive: 0 | inactive: 0 | inactive: 0 | inactive: 0 | inactive: 0 | inactive: 0 | inactive: 0 | 0 | 0 | 0 | 0 | 0 | 0 | 0 | 0 | 0 | 0 | 0 | 0 |
